Source: PMC8043893
No constants are given. Whether binding was seen depends on the method and setting. Binding seen in cells or lysates may run through a third protein. Here binding means that the protein was enriched with, or labelled near, the bait; the list need not be complete. For some of these results: A no says only that the protein was not detected with the bait. For some of these results: Tags and fused reporters may be left off the sequences shown.

Sequences of proteins named here, by UniProt entry; tags and fusion partners are left off.
UniProt Q9GZV5: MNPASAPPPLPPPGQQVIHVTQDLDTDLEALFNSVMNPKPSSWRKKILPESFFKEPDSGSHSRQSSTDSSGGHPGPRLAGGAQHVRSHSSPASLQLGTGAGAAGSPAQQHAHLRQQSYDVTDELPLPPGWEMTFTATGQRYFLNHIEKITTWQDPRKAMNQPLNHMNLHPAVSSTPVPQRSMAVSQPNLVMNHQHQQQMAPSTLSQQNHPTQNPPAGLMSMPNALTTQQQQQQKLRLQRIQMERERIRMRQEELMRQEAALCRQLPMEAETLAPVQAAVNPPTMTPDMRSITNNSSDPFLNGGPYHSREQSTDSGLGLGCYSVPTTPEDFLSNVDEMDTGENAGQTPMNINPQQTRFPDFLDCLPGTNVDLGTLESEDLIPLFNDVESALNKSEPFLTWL

T1: MYC-BioID2-SKI fusion protein (human SKI) (human) (UniProt P12755)
T1 sequence: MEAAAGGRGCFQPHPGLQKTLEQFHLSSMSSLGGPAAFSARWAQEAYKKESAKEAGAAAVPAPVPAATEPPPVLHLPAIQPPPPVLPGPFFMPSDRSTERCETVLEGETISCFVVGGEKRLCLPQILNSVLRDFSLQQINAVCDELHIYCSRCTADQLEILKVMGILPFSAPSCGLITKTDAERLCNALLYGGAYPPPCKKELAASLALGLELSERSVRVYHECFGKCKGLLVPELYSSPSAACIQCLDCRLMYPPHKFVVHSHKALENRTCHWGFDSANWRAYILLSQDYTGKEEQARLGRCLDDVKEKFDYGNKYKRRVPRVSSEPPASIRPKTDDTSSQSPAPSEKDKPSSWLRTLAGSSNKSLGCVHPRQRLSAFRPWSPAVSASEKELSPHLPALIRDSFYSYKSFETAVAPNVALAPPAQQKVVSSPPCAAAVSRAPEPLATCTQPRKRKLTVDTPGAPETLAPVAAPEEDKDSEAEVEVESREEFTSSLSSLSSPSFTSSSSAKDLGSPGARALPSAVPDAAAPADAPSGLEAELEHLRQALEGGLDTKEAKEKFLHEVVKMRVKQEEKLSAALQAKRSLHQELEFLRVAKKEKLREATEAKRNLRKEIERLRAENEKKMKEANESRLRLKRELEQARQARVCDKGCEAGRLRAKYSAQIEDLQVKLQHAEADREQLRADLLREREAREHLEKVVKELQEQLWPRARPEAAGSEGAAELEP


Tests used:
Assay in all cases: proximity labelling; BioID2 fusion bait expressed by adenovirus (MOI 20) in primary human cardiac fibroblasts (P3); 20 uM biotin; lysis; capture on magnetic streptavidin beads; tryptic digestion and MS/MS; SAINTexpress against untreated and empty-BioID2 controls; cut-off fold change >= 3 and SAINT score >= 0.5
[1] = target: T1, MYC-BioID2-SKI fusion protein (human SKI) (human)
[2] = target: MYC-BioID2-TAZ fusion protein (human TAZ/WWTR1) (human) (UniProt Q9GZV5)
[3] = target: MYC-BioID2-TAZ fusion protein (human TAZ/WWTR1) (human), Q9GZV5; conditions: remark: other sources report otherwise

binding [1] | binding [2] | binding [3] | Binder
binds | binds | – | Palladin (protein, UniProt Q8WX93 1-1383) MSGTSSHESFYDSLSDMQEESKNTDFFPGLSAFLSQEEINKSLDLARRAIADSETEDFDSEKEISQIFSTSPASLCEHPSHKETKLGEHASRRPQDNRSTPVQPLAEKQTKSISSPVSKRKPAMSPLLTRPSYIRSLRKAEKRGAKTPSTNVKPKTPHQRKGGPQSQLCDKAANLIEELTSIFKAAKPRNRSPNGESSSPDSGYLSPKNQPSALLSASASQSPMEDQGEMEREVKSPGARHCYQDNQDLAVPHNRKSHPQPHSALHFPAAPRFIQKLRSQEVAEGSRVYLECRVTGNPTPRVRWFCEGKELHNTPDIQIHCEGGDLHTLIIAEAFEDDTGRYTCLATNPSGSDTTSAEVFIEGASSTDSDSESLAFKSRAGAMPQAQKKTTSVSLTIGSSSPKTGVTTAVIQPLSVPVQQVHSPTSYLCRPDGTTTAYFPPVFTKELQNTAVAEGQVVVLECRVRGAPPLQVQWFRQGSEIQDSPDFRILQKKPRSTAEPEEICTLVIAETFPEDAGIFTCSARNDYGSATSTAQLVVTSANTENCSYESMGESNNDHFQHFPPPPPILETSSLELASKKPSEIQQVNNPELGLSRAALQMQFNAAERETNGVHPSRGVNGLINGKANSNKSLPTPAVLLSPTKEPPPLLAKPKLDPLKLQQLQNQIRLEQEAGARQPPPAPRSAPPSPPFPPPPAFPELAACTPPASPEPMSALASRSAPAMQSSGSFNYARPKQFIAAQNLGPASGHGTPASSPSSSSLPSPMSPTPRQFGRAPVPPFAQPFGAEPEAPWGSSSPSPPPPPPPVFSPTAAFPVPDVFPLPPPPPPLPSPGQASHCSSPATRFGHSQTPAAFLSALLPSQPPPAAVNALGLPKGVTPAGFPKKASRTARIASDEEIQGTKDAVIQDLERKLRFKEDLLNNGQPRLTYEERMARRLLGADSATVFNIQEPEEETANQEYKVSSCEQRLISEIEYRLERSPVDESGDEVQYGDVPVENGMAPFFEMKLKHYKIFEGMPVTFTCRVAGNPKPKIYWFKDGKQISPKSDHYTIQRDLDGTCSLHTTASTLDDDGNYTIMAANPQGRISCTGRLMVQAVNQRGRSPRSPSGHPHVRRPRSRSRDSGDENEPIQERFFRPHFLQAPGDLTVQEGKLCRMDCKVSGLPTPDLSWQLDGKPVRPDSAHKMLVRENGVHSLIIEPVTSRDAGIYTCIATNRAGQNSFSLELVVAAKEAHKPPVFIEKLQNTGVADGYPVRLECRVLGVPPPQIFWKKENESLTHSTDRVSMHQDNHGYICLLIQGATKEDAGWYTVSAKNEAGIVSCTARLDVYTQWHQQSQSTKPKKVRPSASRYAALSDQGLDIKAAFQPEANPSHLTLNTALVESEDL
– | – | no binding | Large Tumor Suppressor 1, O95835 1-1130 (enzyme) MKRSEKPEGYRQMRPKTFPASNYTVSSRQMLQEIRESLRNLSKPSDAAKAEHNMSKMSTEDPRQVRNPPKFGTHHKALQEIRNSLLPFANETNSSRSTSEVNPQMLQDLQAAGFDEDMVIQALQKTNNRSIEAAIEFISKMSYQDPRREQMAAAAARPINASMKPGNVQQSVNRKQSWKGSKESLVPQRHGPPLGESVAYHSESPNSQTDVGRPLSGSGISAFVQAHPSNGQRVNPPPPPQVRSVTPPPPPRGQTPPPRGTTPPPPSWEPNSQTKRYSGNMEYVISRISPVPPGAWQEGYPPPPLNTSPMNPPNQGQRGISSVPVGRQPIIMQSSSKFNFPSGRPGMQNGTGQTDFMIHQNVVPAGTVNRQPPPPYPLTAANGQSPSALQTGGSAAPSSYTNGSIPQSMMVPNRNSHNMELYNISVPGLQTNWPQSSSAPAQSSPSSGHEIPTWQPNIPVRSNSFNNPLGNRASHSANSQPSATTVTAITPAPIQQPVKSMRVLKPELQTALAPTHPSWIPQPIQTVQPSPFPEGTASNVTVMPPVAEAPNYQGPPPPYPKHLLHQNPSVPPYESISKPSKEDQPSLPKEDESEKSYENVDSGDKEKKQITTSPITVRKNKKDEERRESRIQSYSPQAFKFFMEQHVENVLKSHQQRLHRKKQLENEMMRVGLSQDAQDQMRKMLCQKESNYIRLKRAKMDKSMFVKIKTLGIGAFGEVCLARKVDTKALYATKTLRKKDVLLRNQVAHVKAERDILAEADNEWVVRLYYSFQDKDNLYFVMDYIPGGDMMSLLIRMGIFPESLARFYIAELTCAVESVHKMGFIHRDIKPDNILIDRDGHIKLTDFGLCTGFRWTHDSKYYQSGDHPRQDSMDFSNEWGDPSSCRCGDRLKPLERRAARQHQRCLAHSLVGTPNYIAPEVLLRTGYTQLCDWWSVGVILFEMLVGQPPFLAQTPLETQMKVINWQTSLHIPPQAKLSPEASDLIIKLCRGPEDRLGKNGADEIKAHPFFKTIDFSSDLRQQSASYIPKITHPTDTSNFDPVDPDKLWSDDNEEENVNDTLNGWYKNGKHPEHAFYEFTFRRFFDDNGYPYNYPKPIEYEYINSQGSEQQSDEDDQNTGSEIKNRDLVYV
binds | – | – | PJA2 ubiquitin ligase (enzyme, UniProt O43164 1-708) MSQYTEKEPAAMDQESGKAVWPKPAGGYQTITGRRYGRRHAYVSFKPCMTRHERSLGRAGDDYEVLELDDVPKENSSGSSPLDQVDSSLPSEPIFEKSETEIPTCGSALNQTTESSQSFVAVHHSEEGRDTLGSSTNLHNHSEGEYIPGACSASSVQNGIALVHTDSYDPDGKHGEDNDHLQLSAEVVEGSRYQESLGNTVFELENREAEAYTGLSPPVPSFNCEVRDEFEELDSVPLVKSSAGDTEFVHQNSQEIQRSSQDEMVSTKQQNNTSQERQTEHSPEDAACGPGHICSEQNTNDREKNHGSSPEQVVRPKVRKLISSSQVDQETGFNRHEAKQRSVQRWREALEVEESGSDDLLIKCEEYDGEHDCMFLDPPYSRVITQRETENNQMTSESGATAGRQEVDNTFWNGCGDYYQLYDKDEDSSECSDGEWSASLPHRFSGTEKDQSSSDESWETLPGKDENEPELQSDSSGPEEENQELSLQEGEQTSLEEGEIPWLQYNEVNESSSDEGNEPANEFAQPAFMLDGNNNLEDDSSVSEDLDVDWSLFDGFADGLGVAEAISYVDPQFLTYMALEERLAQAMETALAHLESLAVDVEVANPPASKESIDGLPETLVLEDHTAIGQEQCCPICCSEYIKDDIATELPCHHFFHKPCVSIWLQKSGTCPVCRRHFPPAVIEASAAPSSEPDPDAPPSNDSIAEAP
